These are yes or no findings as the source states them, for the method shown. Tags and fused reporters may be left off the sequences shown.
Target: T1, Ddi1 UBL with an N-terminal His-tag (residues 1-80) (S. cerevisiae) (UniProt P40087)
T1 sequence (chain, 15N-labelled): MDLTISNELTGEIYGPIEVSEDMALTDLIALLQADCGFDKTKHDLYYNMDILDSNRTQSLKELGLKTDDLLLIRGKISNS
Test: NMR titration; 0.2 mM 15N-labeled Ddi1 UBL, 2D 15N/1H HSQC, two-fold molar excess (0.4 mM) of ligand added; 50 mM sodium phosphate, pH 7.4, 0.5% glycerol, 25 °C; minimal shift approach; both purified

## Rpn10
  binding: no binding (tested: 0.4 mM (two-fold molar excess))

From paper PMC5028754
